In the supplement of paper PMC12067093, “Discovery and optimisation of a covalent ligand for TRIM25 and its application to targeted protein ubiquitination” (Chemical Science, 2025):
Some of the results follow.

The chains behind the UniProt entries cited, without tags or fusion partners. Where a name states a change or a piece, a line headed by the entry shows the natural chain unless it says otherwise.
UniProt O15042: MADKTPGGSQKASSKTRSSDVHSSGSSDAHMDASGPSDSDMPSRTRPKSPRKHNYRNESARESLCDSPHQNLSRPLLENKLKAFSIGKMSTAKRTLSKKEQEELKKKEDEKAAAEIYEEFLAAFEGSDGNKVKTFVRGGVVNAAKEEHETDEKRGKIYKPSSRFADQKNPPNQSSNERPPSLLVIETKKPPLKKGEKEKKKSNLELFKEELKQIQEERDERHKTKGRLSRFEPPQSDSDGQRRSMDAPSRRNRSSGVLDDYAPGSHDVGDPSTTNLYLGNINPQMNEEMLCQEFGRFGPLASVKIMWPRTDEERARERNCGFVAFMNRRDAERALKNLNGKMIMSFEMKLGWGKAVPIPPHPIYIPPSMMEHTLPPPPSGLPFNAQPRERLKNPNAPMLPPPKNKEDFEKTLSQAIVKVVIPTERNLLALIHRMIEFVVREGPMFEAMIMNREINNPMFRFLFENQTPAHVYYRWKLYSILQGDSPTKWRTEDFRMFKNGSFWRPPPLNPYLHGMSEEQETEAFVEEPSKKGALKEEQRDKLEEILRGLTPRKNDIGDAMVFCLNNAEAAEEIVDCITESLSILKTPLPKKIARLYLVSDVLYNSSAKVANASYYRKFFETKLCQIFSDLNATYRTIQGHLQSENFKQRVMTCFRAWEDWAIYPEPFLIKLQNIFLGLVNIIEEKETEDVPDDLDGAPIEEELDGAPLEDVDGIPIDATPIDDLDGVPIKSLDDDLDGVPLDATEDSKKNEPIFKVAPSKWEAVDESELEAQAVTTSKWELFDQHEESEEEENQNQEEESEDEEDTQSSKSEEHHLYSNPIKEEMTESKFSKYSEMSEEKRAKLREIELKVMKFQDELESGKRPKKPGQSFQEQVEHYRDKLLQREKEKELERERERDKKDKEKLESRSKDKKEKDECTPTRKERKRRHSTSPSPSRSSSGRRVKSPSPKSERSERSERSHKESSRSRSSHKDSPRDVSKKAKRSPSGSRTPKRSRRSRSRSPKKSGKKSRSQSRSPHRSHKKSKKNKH
UniProt Q05086: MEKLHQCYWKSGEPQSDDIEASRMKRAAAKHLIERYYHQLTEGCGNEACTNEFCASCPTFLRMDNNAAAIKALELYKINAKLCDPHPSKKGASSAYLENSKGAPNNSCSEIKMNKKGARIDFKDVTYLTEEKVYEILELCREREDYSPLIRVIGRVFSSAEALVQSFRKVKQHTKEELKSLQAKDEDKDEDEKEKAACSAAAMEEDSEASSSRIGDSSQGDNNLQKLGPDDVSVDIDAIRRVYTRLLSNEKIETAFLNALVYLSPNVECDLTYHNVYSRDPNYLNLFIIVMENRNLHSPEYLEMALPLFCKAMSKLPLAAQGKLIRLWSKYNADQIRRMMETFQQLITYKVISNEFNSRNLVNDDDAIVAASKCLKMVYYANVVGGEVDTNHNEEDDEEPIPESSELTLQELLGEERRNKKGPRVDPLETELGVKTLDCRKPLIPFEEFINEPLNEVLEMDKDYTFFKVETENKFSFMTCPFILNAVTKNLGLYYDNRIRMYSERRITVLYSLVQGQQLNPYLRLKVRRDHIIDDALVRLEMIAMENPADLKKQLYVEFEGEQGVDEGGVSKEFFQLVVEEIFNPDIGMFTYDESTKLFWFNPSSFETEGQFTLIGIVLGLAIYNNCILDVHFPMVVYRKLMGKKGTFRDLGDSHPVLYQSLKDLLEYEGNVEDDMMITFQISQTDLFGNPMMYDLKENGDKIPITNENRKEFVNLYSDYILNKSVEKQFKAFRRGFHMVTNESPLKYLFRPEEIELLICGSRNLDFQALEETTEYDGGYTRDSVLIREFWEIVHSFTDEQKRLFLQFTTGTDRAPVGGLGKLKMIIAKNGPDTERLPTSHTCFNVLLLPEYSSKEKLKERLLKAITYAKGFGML
UniProt Q8NBS9: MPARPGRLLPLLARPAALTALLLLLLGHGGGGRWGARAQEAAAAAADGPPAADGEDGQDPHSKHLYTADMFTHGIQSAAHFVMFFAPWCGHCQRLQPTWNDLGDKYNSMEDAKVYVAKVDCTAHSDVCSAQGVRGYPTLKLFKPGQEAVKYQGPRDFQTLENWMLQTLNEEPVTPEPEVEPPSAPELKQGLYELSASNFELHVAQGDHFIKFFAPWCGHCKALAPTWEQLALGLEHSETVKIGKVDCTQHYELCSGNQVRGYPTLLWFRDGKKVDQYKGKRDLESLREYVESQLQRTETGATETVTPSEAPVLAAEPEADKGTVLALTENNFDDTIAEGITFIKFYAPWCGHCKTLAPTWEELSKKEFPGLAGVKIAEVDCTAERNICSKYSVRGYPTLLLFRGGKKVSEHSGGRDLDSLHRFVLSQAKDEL
UniProt Q9NNW7, whole entry, looked up: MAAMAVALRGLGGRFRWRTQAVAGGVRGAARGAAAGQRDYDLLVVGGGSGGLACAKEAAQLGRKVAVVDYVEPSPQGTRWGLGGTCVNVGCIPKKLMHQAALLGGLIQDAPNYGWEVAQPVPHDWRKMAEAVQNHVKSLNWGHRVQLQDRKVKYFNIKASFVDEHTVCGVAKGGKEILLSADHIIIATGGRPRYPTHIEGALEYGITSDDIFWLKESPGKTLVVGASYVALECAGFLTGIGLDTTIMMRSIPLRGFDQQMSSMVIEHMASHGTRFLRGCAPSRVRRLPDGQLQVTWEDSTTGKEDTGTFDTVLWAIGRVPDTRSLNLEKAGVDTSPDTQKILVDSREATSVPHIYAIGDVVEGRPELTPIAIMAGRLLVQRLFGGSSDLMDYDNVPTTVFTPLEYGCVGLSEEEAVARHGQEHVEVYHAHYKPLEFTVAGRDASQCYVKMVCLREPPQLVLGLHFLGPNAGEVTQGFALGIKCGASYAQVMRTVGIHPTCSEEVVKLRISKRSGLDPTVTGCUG
UniProt P10599: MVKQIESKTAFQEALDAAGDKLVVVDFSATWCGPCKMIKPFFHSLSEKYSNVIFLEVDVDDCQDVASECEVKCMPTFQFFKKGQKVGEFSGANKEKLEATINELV
UniProt Q8IYN6: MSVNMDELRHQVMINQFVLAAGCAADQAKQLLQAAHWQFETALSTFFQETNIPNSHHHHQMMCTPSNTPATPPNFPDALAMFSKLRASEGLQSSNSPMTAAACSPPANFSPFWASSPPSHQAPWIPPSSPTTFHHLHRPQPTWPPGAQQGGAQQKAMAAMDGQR
UniProt Q14139: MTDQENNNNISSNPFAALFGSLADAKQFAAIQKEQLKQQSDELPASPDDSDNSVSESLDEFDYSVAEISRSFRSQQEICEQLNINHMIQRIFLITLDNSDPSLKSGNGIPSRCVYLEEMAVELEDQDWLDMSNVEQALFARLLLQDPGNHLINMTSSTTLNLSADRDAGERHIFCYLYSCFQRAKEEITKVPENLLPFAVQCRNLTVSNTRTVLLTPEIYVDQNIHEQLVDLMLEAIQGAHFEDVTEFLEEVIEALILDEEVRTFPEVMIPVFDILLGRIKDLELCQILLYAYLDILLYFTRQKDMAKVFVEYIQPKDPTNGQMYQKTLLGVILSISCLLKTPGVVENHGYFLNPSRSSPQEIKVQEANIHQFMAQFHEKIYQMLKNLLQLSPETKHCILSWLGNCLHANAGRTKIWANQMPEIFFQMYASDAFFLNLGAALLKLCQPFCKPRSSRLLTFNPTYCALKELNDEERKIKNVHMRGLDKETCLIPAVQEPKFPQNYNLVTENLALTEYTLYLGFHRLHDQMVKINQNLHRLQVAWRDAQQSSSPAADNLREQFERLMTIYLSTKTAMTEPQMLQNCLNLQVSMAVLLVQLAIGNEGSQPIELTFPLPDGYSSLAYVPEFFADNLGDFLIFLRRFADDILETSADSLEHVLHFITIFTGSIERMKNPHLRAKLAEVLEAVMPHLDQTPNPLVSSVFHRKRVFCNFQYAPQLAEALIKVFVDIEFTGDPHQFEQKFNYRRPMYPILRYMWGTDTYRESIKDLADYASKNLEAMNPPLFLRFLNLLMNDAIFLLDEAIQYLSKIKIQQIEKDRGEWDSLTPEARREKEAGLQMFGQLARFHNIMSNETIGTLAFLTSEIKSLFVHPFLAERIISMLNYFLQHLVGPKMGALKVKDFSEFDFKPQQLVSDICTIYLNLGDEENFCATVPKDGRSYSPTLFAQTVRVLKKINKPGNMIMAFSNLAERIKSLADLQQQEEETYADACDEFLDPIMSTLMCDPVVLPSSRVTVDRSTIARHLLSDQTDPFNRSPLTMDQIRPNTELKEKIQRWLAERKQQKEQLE
UniProt O95155, whole entry, looked up: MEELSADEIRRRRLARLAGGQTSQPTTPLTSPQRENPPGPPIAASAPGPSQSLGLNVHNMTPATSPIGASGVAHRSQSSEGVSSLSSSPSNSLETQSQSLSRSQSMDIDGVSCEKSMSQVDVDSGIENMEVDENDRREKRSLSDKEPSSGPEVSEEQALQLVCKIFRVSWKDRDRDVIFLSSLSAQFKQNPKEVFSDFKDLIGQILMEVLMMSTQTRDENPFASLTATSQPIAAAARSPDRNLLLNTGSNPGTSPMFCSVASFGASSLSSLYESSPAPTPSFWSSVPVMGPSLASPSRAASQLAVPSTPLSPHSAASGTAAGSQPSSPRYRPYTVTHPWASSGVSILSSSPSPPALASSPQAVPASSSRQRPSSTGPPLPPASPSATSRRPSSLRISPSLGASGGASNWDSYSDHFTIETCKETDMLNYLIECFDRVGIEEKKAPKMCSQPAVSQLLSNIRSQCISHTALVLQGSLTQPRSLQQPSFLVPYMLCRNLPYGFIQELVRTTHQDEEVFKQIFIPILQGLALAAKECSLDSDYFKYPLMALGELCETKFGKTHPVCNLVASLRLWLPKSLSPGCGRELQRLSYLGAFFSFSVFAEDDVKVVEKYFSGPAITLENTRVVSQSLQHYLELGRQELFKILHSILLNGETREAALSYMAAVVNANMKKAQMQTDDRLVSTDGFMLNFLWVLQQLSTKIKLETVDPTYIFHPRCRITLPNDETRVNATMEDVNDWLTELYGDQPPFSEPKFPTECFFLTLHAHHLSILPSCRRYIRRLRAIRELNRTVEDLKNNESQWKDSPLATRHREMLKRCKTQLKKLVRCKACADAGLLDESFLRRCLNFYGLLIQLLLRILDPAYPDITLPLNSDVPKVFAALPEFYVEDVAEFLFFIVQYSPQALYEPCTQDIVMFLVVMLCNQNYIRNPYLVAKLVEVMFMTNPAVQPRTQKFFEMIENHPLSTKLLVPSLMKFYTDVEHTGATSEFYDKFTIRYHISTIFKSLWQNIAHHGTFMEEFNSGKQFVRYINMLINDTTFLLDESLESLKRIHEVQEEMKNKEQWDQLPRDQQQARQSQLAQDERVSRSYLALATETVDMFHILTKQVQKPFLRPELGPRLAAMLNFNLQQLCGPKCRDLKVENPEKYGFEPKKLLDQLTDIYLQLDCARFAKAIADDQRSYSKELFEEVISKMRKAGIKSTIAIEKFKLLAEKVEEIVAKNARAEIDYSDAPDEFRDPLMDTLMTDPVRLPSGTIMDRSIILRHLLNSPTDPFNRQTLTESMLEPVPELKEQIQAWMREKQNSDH
UniProt Q15819: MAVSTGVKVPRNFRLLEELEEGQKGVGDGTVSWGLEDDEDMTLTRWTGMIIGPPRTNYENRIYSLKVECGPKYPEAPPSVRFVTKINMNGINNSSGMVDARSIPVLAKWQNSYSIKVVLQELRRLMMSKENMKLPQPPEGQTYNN
UniProt Q16881, whole entry, looked up: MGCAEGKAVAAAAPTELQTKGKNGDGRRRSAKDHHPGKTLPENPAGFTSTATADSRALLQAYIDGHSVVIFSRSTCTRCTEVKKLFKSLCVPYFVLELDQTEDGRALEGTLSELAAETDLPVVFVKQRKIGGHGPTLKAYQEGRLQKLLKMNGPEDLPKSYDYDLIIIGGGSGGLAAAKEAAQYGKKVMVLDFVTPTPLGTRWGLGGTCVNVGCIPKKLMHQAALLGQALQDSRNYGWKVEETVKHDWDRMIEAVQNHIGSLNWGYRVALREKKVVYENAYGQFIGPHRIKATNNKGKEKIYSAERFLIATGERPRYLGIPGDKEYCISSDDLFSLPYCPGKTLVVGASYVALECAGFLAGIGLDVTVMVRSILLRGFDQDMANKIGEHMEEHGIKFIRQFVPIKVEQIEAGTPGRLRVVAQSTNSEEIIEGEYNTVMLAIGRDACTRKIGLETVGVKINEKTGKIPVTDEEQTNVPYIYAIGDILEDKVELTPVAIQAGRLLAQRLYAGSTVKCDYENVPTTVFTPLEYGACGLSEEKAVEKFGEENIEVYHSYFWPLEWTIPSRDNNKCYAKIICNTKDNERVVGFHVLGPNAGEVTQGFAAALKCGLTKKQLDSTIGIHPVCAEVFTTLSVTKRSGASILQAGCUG
UniProt P51965: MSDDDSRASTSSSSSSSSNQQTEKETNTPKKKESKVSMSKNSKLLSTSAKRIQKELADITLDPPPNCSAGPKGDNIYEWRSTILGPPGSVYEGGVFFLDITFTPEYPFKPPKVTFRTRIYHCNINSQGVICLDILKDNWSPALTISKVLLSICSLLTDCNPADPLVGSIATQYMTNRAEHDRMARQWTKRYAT

Compound: CC1Cc2ccccc2N1C(=O)C1CCCN(C1)C(=O)CCl (mixture of isomers) [TRIM25 ligand 11 (diastereomer mixture)]
Test: probe-labelled cysteine peptide fold change vs DMSO (competition) (log2 fold change); higher = less target engagement (more negative = stronger competition)
Conditions: THP-1, incubation time: 4 h
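Also: competitive chemoproteomic profiling in live THP-1 cells with an iodoacetamide desthiobiotin (IA-DTB) probe, comparing probe-labelled peptide intensities in compound-treated cells against DMSO-treated controls.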

| Target | probe-labelled cysteine peptide fold change (10 µM) | probe-labelled cysteine peptide fold change (50 µM) |
| --- | --- | --- |
| U2SURP_O15042_65_ESLCDSPHQNLSRPLLENK (UniProt O15042) | -0.0929 | -0.314 |
| UBA1_P22314_706_SLVLQRPQTWADCVTWACHHWHTQYSNNIR (UniProt P22314) | -0.0392 | 0.101 |
| UBE2T_Q9NPD8_24_ELHMLATEPPPGITCWQDK (UniProt Q9NPD8) | -0.106 | -0.245 |
| UBE3A_Q05086_198_AACSAAAMEEDSEASSSR (UniProt Q05086) | -0.0145 | -0.123 |
| TXNDC5_Q8NBS9_128_VDCTAHSDVCSAQGVR (UniProt Q8NBS9) | -0.0645 | -0.13 |
| UBR4_Q5T4S7_2618+2619_QLEGDCCSFITQLVNHFWK (UniProt Q5T4S7) | -0.00282 | 0.121 |
| TXNRD2_Q9NNW7_523_SGLDPTVTGCUG (UniProt Q9NNW7) | -0.465 | -2 |
| TXNRD2_Q9NNW7_54_DYDLLVVGGGSGGLACAK (UniProt Q9NNW7) | -0.0677 | -0.106 |
| TXN_P10599_32+35_LVVVDFSATWCGPCK (UniProt P10599) | -0.484 |  |
| UBA6_A0AVT1_473_LQNLNIFLVGCGAIGCEMLK | -0.0477 | -0.112 |
| UBALD2_Q8IYN6_23_HQVMINQFVLAAGCAADQAK (UniProt Q8IYN6) | 0.0907 | 0.074 |
| UBR1_Q8IWV7_1101_EVLTCILCQEEQEVK (UniProt Q8IWV7) | -0.0135 | 0.325 |
| UBR4_Q5T4S7_779_ASAQGDPDVPECLK (UniProt Q5T4S7) | 0.111 | 0.287 |
| UBA1_P22314_748_RCPHPLTFDVNNPLHLDYVMAAANLFAQTYGLTGSQDR (UniProt P22314) | 0.00165 | -0.123 |
| TXNL4B_Q9NX01_38_FGRDEDPVCLQLDDILSK (UniProt Q9NX01) | 0.0238 | -0.167 |
| UBE2D3_P61077_111_VLLSICSLLCDPNPDDPLVPEIAR (UniProt P61077) | 0.482 |  |
| UAP1L1_Q3KQV9_271+278_LADPVFIGFCVLQGADCGAK (UniProt Q3KQV9) | 0.0951 | 0.0877 |
| UBR5_O95071_1942_SHNDEHSDVLPVLDVCSLK (UniProt O95071) | -0.586 | -0.263 |
| TXN_P10599_35_LVVVDFSATWCGPCK (UniProt P10599) | -0.356 | -0.505 |

Whole records, quoted from the list:
TXNDC5_Q8NBS9_128_VDCTAHSDVCSAQGVR (UniProt Q8NBS9) is listed with probe-labelled cysteine peptide fold change (10 µM) = -0.0645; probe-labelled cysteine peptide fold change (50 µM) = -0.13
TXNRD2_Q9NNW7_523_SGLDPTVTGCUG (UniProt Q9NNW7) is listed with probe-labelled cysteine peptide fold change (10 µM) = -0.465; probe-labelled cysteine peptide fold change (50 µM) = -2

Continued:

| Target | probe-labelled cysteine peptide fold change (10 µM) | probe-labelled cysteine peptide fold change (50 µM) |
| --- | --- | --- |
| UBA2_Q9UBT2_129_MCLAADVPLIESGTAGYLGQVTTIK (UniProt Q9UBT2) | 0.176 | 0.0342 |
| UBA1_P22314_711_SLVLQRPQTWADCVTWACHHWHTQYSNNIR (UniProt P22314) | 0.0038 | 0.142 |
| UBE4A_Q14139_79_SQQEICEQLNINHMIQR (UniProt Q14139) | -0.0818 | -0.101 |
| U2SURP_O15042_918_EKDECTPTRK (UniProt O15042) | -0.147 | -0.0524 |
| UBE2O_Q9C0C9_598_VQSCPDPAVYGVVQSGDHIGR (UniProt Q9C0C9) | -0.0239 | -0.0974 |
| UBE4B_O95155_448_MCSQPAVSQLLSNIR (UniProt O95155) | -0.0308 | -0.187 |
| UBE2V2_Q15819_69_VECGPKYPEAPPSVR (UniProt Q15819) | -0.401 | -0.226 |
| TXNRD1_Q16881_625_QLDSTIGIHPVCAEVFTTLSVTK (UniProt Q16881) | 0.301 | 0.194 |
| UBA3_Q8TBC4_249_LPEHCIEYVR (UniProt Q8TBC4) | -0.0187 | -0.0301 |
| TXNRD2_Q9NNW7_446_DASQCYVK (UniProt Q9NNW7) | 0.00148 | 0.225 |
| TYSND1_Q2T9J0_17_AAEQAGCMVSASR (UniProt Q2T9J0) | 0.116 | 0.0273 |
| UAP1_Q16222_293_TNPTEPVGVVCR (UniProt Q16222) | -0.0538 | 0.0302 |
| UBA1_P22314_234_DNPGVVTCLDEAR (UniProt P22314) | 0.0251 | -0.108 |
| UBE2E1_P51965_131_IYHCNINSQGVICLDILK (UniProt P51965) | 0.0832 | 0.188 |
| UBE4A_Q14139_710_VFCNFQYAPQLAEALIK (UniProt Q14139) | -0.0315 | -0.042 |
| UBR4_Q5T4S7_122_LENPDEACAVSQK (UniProt Q5T4S7) | 0.0581 | 0.444 |
| TXNDC5_Q8NBS9_247+254_VDCTQHYELCSGNQVR (UniProt Q8NBS9) | -0.0441 | -0.16 |
| UBR4_Q5T4S7_4146_QAACTIVEALATIPSRK (UniProt Q5T4S7) | -0.0666 | 0.0515 |
| UBE2F_Q969M7_50+52_EVAELEANLPCTCK (UniProt Q969M7) | 0.00463 | -0.237 |
